Data on two substances can be found in patent US20190010493A1 (published 2019).

By UniProt entry, the sequences of proteins in these tests, tags left out. Where a name states a change or a piece, a line headed by the entry shows the natural chain unless it says otherwise.
UniProt Q15349: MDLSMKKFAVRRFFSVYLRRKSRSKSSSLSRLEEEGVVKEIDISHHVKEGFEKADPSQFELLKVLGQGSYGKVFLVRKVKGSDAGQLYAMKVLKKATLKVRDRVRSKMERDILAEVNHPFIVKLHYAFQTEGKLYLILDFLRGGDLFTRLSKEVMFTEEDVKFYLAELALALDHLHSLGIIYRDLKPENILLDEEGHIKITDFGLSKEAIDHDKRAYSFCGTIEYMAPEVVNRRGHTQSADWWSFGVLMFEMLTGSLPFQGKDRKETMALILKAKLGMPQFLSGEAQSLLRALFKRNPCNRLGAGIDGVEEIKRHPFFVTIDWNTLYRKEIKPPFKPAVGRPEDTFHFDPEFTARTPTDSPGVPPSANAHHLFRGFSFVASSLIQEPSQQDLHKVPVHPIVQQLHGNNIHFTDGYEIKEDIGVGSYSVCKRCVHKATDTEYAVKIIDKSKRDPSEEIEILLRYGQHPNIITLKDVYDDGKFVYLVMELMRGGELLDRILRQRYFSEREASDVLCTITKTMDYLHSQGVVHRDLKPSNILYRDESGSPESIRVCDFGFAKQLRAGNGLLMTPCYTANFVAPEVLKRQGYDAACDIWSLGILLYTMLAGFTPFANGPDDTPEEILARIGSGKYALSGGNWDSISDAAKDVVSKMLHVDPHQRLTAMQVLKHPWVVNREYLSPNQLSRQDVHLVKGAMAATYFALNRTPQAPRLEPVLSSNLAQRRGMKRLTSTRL

In assay [1] the target is T1, bacterially expressed His-tagged mAKAP 1286 to 1833 (rat) (UniProt Q9WVC7).
T1 sequence: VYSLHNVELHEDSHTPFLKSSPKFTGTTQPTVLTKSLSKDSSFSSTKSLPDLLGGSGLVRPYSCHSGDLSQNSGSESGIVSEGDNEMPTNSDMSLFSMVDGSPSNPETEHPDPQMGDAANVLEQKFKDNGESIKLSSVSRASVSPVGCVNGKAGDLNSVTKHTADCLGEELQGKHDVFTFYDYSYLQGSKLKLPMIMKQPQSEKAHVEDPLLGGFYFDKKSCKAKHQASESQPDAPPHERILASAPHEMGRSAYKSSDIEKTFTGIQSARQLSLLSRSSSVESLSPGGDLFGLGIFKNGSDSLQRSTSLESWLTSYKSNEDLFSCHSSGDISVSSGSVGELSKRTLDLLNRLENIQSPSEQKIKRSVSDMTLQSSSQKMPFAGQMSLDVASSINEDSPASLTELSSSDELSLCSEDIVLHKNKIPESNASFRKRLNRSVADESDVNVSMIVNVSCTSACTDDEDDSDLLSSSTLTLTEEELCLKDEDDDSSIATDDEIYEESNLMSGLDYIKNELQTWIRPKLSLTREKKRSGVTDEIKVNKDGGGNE
The assay is described as follows: SPR (BIAcore T100), His-mAKAP 1286-1833 immobilised, His-RSK3 analyte. A general note: In SPR one partner is held on a chip, and binding of the other changes the refractive index at the surface.

Assay [2] has as its target T2, myc-tagged mAKAP 1286 to 1833 (rat) (UniProt Q9WVC7).
T2 sequence: T1 sequence
The assay is described as follows: co-immunoprecipitation with myc-tag antibody, heterologous cells.

For assay [3], the target named is full-length mAKAPβ (muscle A-kinase anchoring protein, beta alternatively-spliced form) (rat) (UniProt Q9WVC7). The assay is described as follows: co-immunoprecipitation, HA-RSK co-expressed with mAKAP in HEK293 cells.
Assay [4] deals with mAKAPα (muscle A-kinase anchoring protein, alpha alternatively-spliced form) (rat) (UniProt Q9WVC7). The assay is described as above.

Results are given in words; binding and its absence hold for the method and conditions named. For some of these results: Binding seen in cells or lysates may run through a third protein. Some results given as binding are weak or reduced against the parent protein; the word gives no strength. For some of these results: Where a sequence is shown, tags or fusion partners need not be part of it.

Take “bacterially expressed His-tagged full-length RSK3 (from UniProt Q15349 1-733) (enzyme)”: in assay [1], the binding entry was “binds”.

Regarding “HA-tagged RSK3 (type 3 p90 ribosomal S6 kinase) (from UniProt Q15349 1-733) (enzyme)”, the binding entry in assay [2], in assay [3] and in assay [4] was “binds” each time.
